# Assay results as given in paper PMC12264794, “Homoleptic complexes of titanium(IV) fused with O^N^O Schiff base derivatives: design, BSA–DNA interaction, molecular docking, DFT and cytotoxicity” (RSC Advances, 2025).
# Experiments:
# CT-DNA [1] = experiment: UV-vis absorption titration with CT-DNA; format: binding, calf; details: on addition of CT-DNA
# Procedure: The UV-vis titration technique was employed to conduct DNA binding investigations of the newly synthesized Ti(IV)complexes. The binding interactions between Ti(IV) complexes and CT-DNA 5 mM (5 × 10^−5 M) produced in PBS buffer were assessed in a 5 mM phosphate buffer (PBS) with a pH of 7.4. The ratio of UV absorbance of CT-DNA at each position, 260 and 280 nm, was confirmed. The concentration of each nucleotide was calculated using the molar absorption coefficient (6600 m^−1) of CT-DNA at 260 nm. Additional dilutions were made in 5 mM PBS buffer solution, and stock solutions of metal complexes were prepared in DMSO. DNA binding experiments were performed with a fixed concentration of the complex (20 μM) and increasing concentrations of CT-DNA (0–80 μM) in sample solutions to detect the CT-DNA absorbance peak.[41,42]
# UV-vis spectra typically show a shift in wavelength and a change in absorption spectra as a result of the interaction of the Ti(IV) complexes with DNA. […] These modifications represent the properties of the complexes attached to DNA by covalent or noncovalent interactions. Then, using eqn (4), the binding characteristics for the aforementioned complexes, including binding constant (Kb) and binding sites, were determined.4 [drawing 4] where εa, εf, and εb represent the apparent extinction coefficient of the complex, the extinction coefficient of the complex in its free form and the extinction coefficient of the complex when completely bound to DNA.
# CT-DNA [2] = experiment: Competitive EtBr displacement fluorescence quenching on CT-DNA; format: binding, calf; details: Scatchard plot
# Procedure: Using fluorescence spectroscopy, the competitive binding relationship between metal complexes and CT-DNA bound to ethidium bromide was investigated. EtBr and CT-DNA solutions at a 5 mM concentration were made in PBS buffer (pH 7.4) for the fluorescence studies. After that, the reference solutions were allowed to settle at room temperature for an hour and the CT-DNA reference solution (200 μM) was coupled to ethidium bromide (50 μM) and allowed to rest for the specified period. The excitation and emission wavelengths were set at 460 nm and incremental addition of Ti(IV) complex concentrations ranging from 0 to 80 μM were used to titrate constant concentrations of EtBr-CT-DNA solution.[43,44]
# A known volume of 200 μM CT-DNA (5 Mm) and 50 μM EB was mixed with an aqueous PBS buffer to make an EB-CT-DNA solution. The mixture was then kept at room temperature for 20 minutes before the complexes were titrated. Analysis of the competitive interaction mechanisms of the complexes towards CT-DNA involved the incremental addition of Ti(IV) complexes to the mixture of EB-CT-DNA. The modification in the emission spectral profile of EB-DNA indicated the impact of the addition of the complexes and there was a noticeable decrease in inflorescence intensity when the Ti(IV) complexes (0–100 μM) were added to the EB-CT-DNA system (Fig. 4(a), ESI Fig. S63 ^† and Table 2).
# The linear plot of I0/I versus [complex] […] KSV is the Stern–Volmer quenching constant, and [Q] is the quencher concentration.6 Kapp × [Complex]50 = KEtBr × [EtBr]For the Ti(IV) complexes, Kapp (the apparent binding constant) was calculated using eqn (6), where KEtBr (1.0 × 10^7 M^−1) is the DNA binding constant of EB, [EtBr] is the concentration of EB = 10 μM and [Complex]50 denotes the complex concentration at which the fluorescence intensity of the DNA-EB adduct is reduced to 50%. […] Furthermore, the number of binding sites (n) and the equilibrium binding constant K were ascertained by using the Scatchard eqn (7):7 Log(I0 − I/I) = log K + n log[Q]where I0 is the fluorescence intensity of CT-DNA + EtBr in the absence of complex and I points to the fluorescence intensities of CT-DNA in the presence of a complex of concentration [Q]. The significant quenching in fluorescence intensity of all metal complexes (Table 2), the Stern–Volmer (ESI Fig. S64 ^†) and Scatchard plots (Fig. 4(c), ESI Fig. S65 ^† and Table 2), and other computations performed, supported the strong groove-binding interaction mode with CT-DNA.
Structure (SMILES),Change in absorbance intensity (CT-DNA [1]),"n, number of binding sites (CT-DNA [2])"
[O-]C(=NN=Cc1ccccc1[O-])c1ccncc1.[O-]C(=NN=Cc1ccccc1[O-])c1ccncc1.[Ti+4] [Ti-1-IS],Hyperchromism,1.45
[O-]C(=NN=Cc1c([O-])ccc2ccccc12)c1ccncc1.[O-]C(=NN=Cc1c([O-])ccc2ccccc12)c1ccncc1.[Ti+4] [Ti-2-IN],Hyperchromism,1.06
COc1cccc(C=NN=C([O-])c2ccncc2)c1[O-].COc1cccc(C=NN=C([O-])c2ccncc2)c1[O-].[Ti+4] [Ti-3-IO],Hyperchromism,1.45
[O-]C(=NN=Cc1cc(F)ccc1[O-])c1ccncc1.[O-]C(=NN=Cc1cc(F)ccc1[O-])c1ccncc1.[Ti+4] [Ti-4-IF],Hyperchromism,1.02
[O-]C(=NN=Cc1cc(Cl)ccc1[O-])c1ccncc1.[O-]C(=NN=Cc1cc(Cl)ccc1[O-])c1ccncc1.[Ti+4] [Ti-5-ICl],Hyperchromism,1.38
Brc1ccc2c(c1)C=NN=C(c1ccncc1)[O][Ti]1([O]C(c3ccncc3)=NN=Cc3cc(Br)ccc3[O]1)[O]2 (stereo not drawn) [Ti-6-IBr],Hyperchromism,1.01
